In the supplement of paper PMC12462457:
Structures can show the parent of a compound that is named as a salt. ± gives the standard deviation of the averaged measurements. The list shows a part of the results. Repeats in this data set agree poorly, so a single value says little.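 Cells were counted by imaging DAPI-stained nuclei, and cells lacking phalloidin-stained cytoplasm were excluded as dead. Each well's count was divided by the median count of the vehicle wells on the same plate, and values were averaged over two replicate plates.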

System: OVCAR8
Assay: cell count relative to DMSO vehicle (fold change); higher = more surviving senescent cells (less killing)
Conditions: senescence inducer: cisplatin 10 µM 48 h, then 6 d recovery (CP senescent), exposure time 24 h

| SMILES | cell count (compound dose 1 µM) | cell count (compound dose 5 µM) |
| --- | --- | --- |
| CN1CCC(c2c(O)cc(O)c3c(=O)cc(-c4ccccc4Cl)oc23)C1CO (stereo not drawn) [Riviciclib hydrochloride] | 1.06 ± 0.026 | 0.772 ± 0.027 |
| C=C(C)[C@H](CC=C(C)C)Cc1c(O)cc(O)c2c1O[C@H](c1ccc(O)cc1O)CC2=O [Sophoraflavanone G] | 1.29 ± 0.28 | 1.21 ± 0.38 |
| Nc1cccc2c1C(=O)N(C1CCC(=O)NC1=O)C2=O (stereo not drawn) [Pomalidomide] | 0.866 ± 0.076 | 0.897 ± 0.12 |
| Cl.Cl.N=C(N)c1ccc2nc(-c3ccc(-c4nc5ccc(C(=N)N)cc5[nH]4)[se]3)[nH]c2c1 [DB1976 (dihydrochloride)] | 1.29 ± 0.037 | 1.03 ± 0.28 |
| COc1ccc(S(=O)(=O)Nc2cc(-c3c(O)ccc4ccccc34)c(O)c3ccccc23)cc1 | 0.865 ± 0.09 | 0.533 ± 0.15 |
| O=C1Nc2ccccc2/C1=C1/Nc2ccccc2C1=O [Indirubin] | 0.688 ± 0.18 | 0.732 ± 0.11 |
| COc1cc(C(=O)O)ccc1NC(=O)[C@@H]1N[C@@H](CC(C)(C)C)[C@](C#N)(c2ccc(Cl)cc2F)[C@H]1c1cccc(Cl)c1F [Idasanutlin] | 1.08 ± 0.059 | 0.896 ± 0.024 |
| CC1(C)CCC(C)(C)c2cc(NC(=O)c3ccc(C(=O)O)cc3)ccc21 [Tamibarotene] | 1.18 ± 0.063 | 1.16 ± 0.15 |
| Cc1cc(C)c(Nc2ccnc(Nc3ccc(C#N)cc3)n2)c(C)c1 [Dapivirine] | 0.901 ± 0.019 | 0.894 ± 0.042 |
| C[n+]1cc2c3c(ccc2c2ccc4cc5c(cc4c21)OCO5)OCO3 | 0.755 ± 0.17 | 0.0875 ± 0.049 |
| Nc1ncnc2c1ncn2[C@@H]1O[C@H](CO)[C@@H](O)[C@H]1O [Adenosine] | 1.38 ± 0.14 | 0.853 ± 0.35 |
| CC(=O)O[C@@]12CO[C@@H]1C[C@H](O)[C@@]1(C)C(=O)[C@H](O)C3=C(C)[C@@H](OC(=O)[C@H](O)[C@@H](NC(=O)OC(C)(C)C)c4ccccc4)C[C@@](O)([C@@H](OC(=O)c4ccccc4)[C@H]21)C3(C)C [Docetaxel] | 0.778 ± 0.11 | 0.667 ± 0.07 |
| O=C(/C=C/c1ccccc1)NC(NC(=S)Nc1cccc2cccnc12)C(Cl)(Cl)Cl (stereo not drawn) [Salubrinal] | 0.928 ± 0.18 | 1.0925 ± 0.00071 |
| CO[C@H]1C[C@@H]2CC[C@@H](C)[C@@](O)(O2)C(=O)C(=O)N2CCCC[C@H]2C(=O)O[C@H]([C@H](C)C[C@@H]2CC[C@@H](OCCO)[C@H](OC)C2)CC(=O)[C@H](C)/C=C(\C)[C@@H](O)[C@@H](OC)C(=O)[C@H](C)C[C@H](C)/C=C/C=C/C=C/1C [Everolimus] | 0.872 ± 0.079 | 0.635 ± 0.091 |
| Nc1ccn([C@@H]2O[C@H](CO)[C@@H](O)C2(F)F)c(=O)n1 [Gemcitabine HCl] | 1.13 ± 0.054 | 0.734 ± 0.25 |
| Nc1ccn([C@@H]2O[C@H](CO)[C@@H](O)C2(F)F)c(=O)n1 [Gemcitabine] | 1.077 ± 0.0035 | 0.878 ± 0.076 |
| CO[C@H]1/C=C\C=C(/C)C(=O)NC2=CC(=O)C(NCCN(C)C)=C(C[C@@H](C)C[C@H](OC)[C@H](O)[C@@H](C)/C=C(\C)[C@@H]1OC(N)=O)C2=O [Alvespimycin (hydrochloride)] | 0.243 ± 0.059 | 0.261 ± 0.0085 |
| CC1=NN(c2ccccc2)C(=O)C1 | 1.18 ± 0.044 | 1.13 ± 0.084 |
| CC(=O)c1ccc2c(c1)c1cc(C(C)=O)ccc1n2CCNC(C)C [CBL0137 hydrochloride] | 0.453 ± 0.2 | 0.342 ± 0.056 |
| O=C(/C=C/c1ccc(O)cc1)CC(=O)/C=C/c1ccc(O)cc1 [Bisdemethoxycurcumin] | 1.21 ± 0.047 | 1.1 ± 0.36 |
| COc1ccc(Cn2ccc3ccc(C(=O)NO)cc32)cc1 | 0.9235 ± 0.0092 | 1.04 ± 0.32 |
| CC#CC(=O)N1CC[C@@H](n2c(=O)n(-c3ccc(Oc4ccccc4)cc3)c3c(N)ncnc32)C1 [Tirabrutinib] | 1.25 ± 0.11 | 1.1 ± 0.16 |

Fetched one by one from the entries so far (2):

| SMILES | cell count (compound dose 1 µM) | cell count (compound dose 5 µM) |
| --- | --- | --- |
| CC(=O)O[C@@]12CO[C@@H]1C[C@H](O)[C@@]1(C)C(=O)[C@H](O)C3=C(C)[C@@H](OC(=O)[C@H](O)[C@@H](NC(=O)OC(C)(C)C)c4ccccc4)C[C@@](O)([C@@H](OC(=O)c4ccccc4)[C@H]21)C3(C)C [Docetaxel] | 0.778 ± 0.11 | 0.667 ± 0.07 |
| O=C1Nc2ccccc2/C1=C1/Nc2ccccc2C1=O [Indirubin] | 0.688 ± 0.18 | 0.732 ± 0.11 |

Following part.

| SMILES | cell count (compound dose 1 µM) | cell count (compound dose 5 µM) |
| --- | --- | --- |
| CC1(C)O[C@H]2CC(=O)OC[C@]23[C@H]2CC[C@@]4(C)[C@H](c5ccoc5)OC(=O)[C@H]5O[C@]54[C@]2(C)C(=O)C[C@@H]13 [Limonin] | 1.25 ± 0.08 | 0.82 ± 0.11 |
| CCOC(=O)c1cnc2ccc(-c3cncc(NS(=O)(=O)c4ccccc4)c3)cn12 | 0.795 ± 0.13 | 0.39 ± 0.0099 |
| COc1cc(C(=O)N2CCC(N3CCN(C)CC3)CC2)ccc1Nc1ncc2c(n1)N(C)c1ccccc1C(=O)N2C | 0.728 ± 0.053 | 0.652 ± 0.03 |
| COc1cc2cc(c1Cl)N(C)C(=O)CC(O)C1(C)OC1C(C)C1CC(O)(NC(=O)O1)C(OC)/C=C/C=C(\C)C2 (stereo not drawn) [Maytansinol] | 1 ± 0.033 | 0.664 ± 0.17 |
| Cc1[nH]c2ccc(F)cc2c1-c1nc2c3cccnc3c3ncccc3c2[nH]1 | 1.12 ± 0.11 | 1.27 ± 0.036 |
| Cc1ccc(-c2cn3c4c(sc3n2)CCCC4)cc1 [Pifithrin-β (hydrobromide)] | 1.14 ± 0.35 | 1.21 ± 0.19 |
| CC(C)=CCC[C@](C)(O)[C@H]1CC[C@]2(C)[C@@H]1[C@H](O)C[C@@H]1[C@@]3(C)CC[C@H](O)C(C)(C)[C@@H]3CC[C@]12C [(20S)-Protopanaxadiol] | 0.789 ± 0.19 | 0.43 ± 0.24 |
| CCCCCCCC(=O)/C=C/c1ccc(O)c(OC)c1 [(E)-[6]-Dehydroparadol] | 1 ± 0.22 | 1.084 ± 0.0057 |
| Cc1cc2nc3c(=O)[nH]c(=O)nc-3n(C)c2cc1C=O | 0.92 ± 0.055 | 0.63 ± 0.75 |
| O=C(O)C(=O)O.[NH-][C@@H]1CCCC[C@H]1[NH-].[Pt+2] | 0.812 ± 0.2 | 0.458 ± 0.09 |
| C=CCSSSCC=C | 1.14 ± 0.065 | 0.964 ± 0.3 |
| Cc1cc(C(C)(C)C)c(O)c(C(C)(C)C)c1 | 1.13 ± 0.073 | 1.16 ± 0.035 |
| C1COC(NC(C2CC2)C2CC2)=N1 [Rilmenidine (hemifumarate)] | 0.958 ± 0.14 | 0.823 ± 0.14 |
| C/C(=C\c1csc(C)n1)[C@@H]1C[C@@H]2O[C@]2(C)CCC[C@H](C)[C@H](O)[C@@H](C)C(=O)C(C)(C)[C@@H](O)CC(=O)N1 [Ixabepilone] | 1.05 ± 0.015 | 0.98 ± 0.19 |
| O=C(O)c1cn(C2CC2)c2cc(N3CCNCC3)c(F)cc2c1=O | 0.963 ± 0.098 | 0.537 ± 0.15 |
| CN1CC(=O)N2[C@H](c3ccc4c(c3)OCO4)c3[nH]c4ccccc4c3C[C@@H]2C1=O [Tadalafil] | 0.922 ± 0.15 | 0.797 ± 0.06 |
| CCN(C(=O)c1c(O)c2c(Cl)cccc2n(C)c1=O)c1ccccc1 [Laquinimod] | 1.14 ± 0.17 | 1.13 ± 0.14 |
| CC(NC(=O)c1ccccc1/N=C/c1c(O)ccc2ccccc12)c1ccccc1 (stereo not drawn) [Sirtinol] | 0.892 ± 0.14 | 0.442 ± 0.34 |
| O=C(Nc1nc2ccc(NC(=O)C34CC5CC(CC(C5)C3)C4)cc2s1)c1ccccc1 | 1.23 ± 0.054 | 0.912 ± 0.18 |
| Nc1ccn([C@@H]2C(F)=C(CO)[C@@H](O)[C@H]2O)c(=O)n1 | 1.15 ± 0.1 | 1.24 ± 0.016 |
| CCC[C@H](C)Oc1nc(N)c2[nH]c(=O)n(CCCCCN3CCCCC3)c2n1 | 1.08 ± 0.22 | 1.01 ± 0.14 |
| NC(=O)c1cccc2cn(-c3ccc([C@@H]4CCCNC4)cc3)nc12 [Niraparib] | 1.17 ± 0.05 | 0.808 ± 0.32 |

| SMILES | cell count (compound dose 1 µM) | cell count (compound dose 5 µM) |
| --- | --- | --- |
| NC(=O)c1cccc2cn(-c3ccc([C@@H]4CCCNC4)cc3)nc12 [Niraparib (MK-4827) tosylate] | 1.091 ± 0.0078 | 0.722 ± 0.61 |
| CO[C@@H]1[C@H](N(C)C(=O)c2ccccc2)C[C@H]2O[C@]1(C)n1c3ccccc3c3c4c(c5c6ccccc6n2c5c31)C(=O)NC4 [Midostaurin] | 0.454 ± 0.021 | 0.134 ± 0.069 |
| CC[C@H](C)[C@H](NC(=O)OCc1ccccc1)C(=O)N[C@H](C=O)CC(C)C [Z-Ile-Leu-aldehyde] | 1.16 ± 0.1 | 1.1 ± 0.091 |
| CNC(=O)c1cccc(-c2ccc3c(N4CCOC[C@@H]4C)nc(N4CCOC[C@@H]4C)nc3n2)c1 [Vistusertib] | 0.912 ± 0.058 | 0.83 ± 0.048 |
| CCc1cc(Nc2nccc(-c3c(-c4ccc(OC)c(C(=O)Nc5c(F)cccc5F)c4)nc4ccccn34)n2)c(OC)cc1N1CCC(N2CCN(S(C)(=O)=O)CC2)CC1 | 0.774 ± 0.088 | 0.579 ± 0.047 |
| CC(C)C[C@H](NC(=O)[C@@H](NC(=O)c1cccc(-c2ccccc2)n1)[C@@H](C)O)B(O)O [Delanzomib] | 0.622 ± 0.081 | 0.646 ± 0.03 |
| COc1cc(/C=C/c2ccc(NC(=O)/C=C/c3cc(OC)c(OC)c(OC)c3)cc2)cc(OC)c1 | 1.4 ± 0.032 | 1.47 ± 0.12 |
| CNC(=O)c1cc(Oc2ccc(NC(=O)Nc3cc(C(C)(C)C)nn3-c3ccc4ncccc4c3)c(F)c2)ccn1 [Rebastinib (DCC-2036)] | 1.3 ± 0.013 | 0.957 ± 0.74 |
| CC(C)=CCc1c(O)ccc(C(=O)/C=C/c2ccc(O)cc2)c1O [Isobavachalcone] | 0.842 ± 0.049 | 0.51 ± 0.35 |
| COc1ccc(-c2cc(=O)c3c(O)c(OC)c(O[C@@H]4O[C@H](CO[C@@H]5O[C@@H](C)[C@H](O)[C@@H](O)[C@H]5O)[C@@H](O)[C@H](O)[C@H]4O)cc3o2)cc1 | 0.971 ± 0.057 | 0.683 ± 0.086 |
| O=C1N=C(N2CCN(CCO)CC2)S/C1=C\c1ccc(-c2ccccc2)cc1 | 1.11 ± 0.17 | 1.07 ± 0.29 |
| CC1(C)C=Cc2cc(CCn3c4ccccc4c4ccccc43)cc(C=O)c2O1 | 0.669 ± 0.098 | 0.42 ± 0.068 |
| COc1cc2c(=O)c(-c3ccc(O)cc3)coc2cc1O [Glycitein] | 1.06 ± 0.19 | 0.839 ± 0.06 |
| C/C=C1\C(=O)C[C@H]2[C@@H]3CCC4=CC(=O)CC[C@]4(C)[C@H]3CC[C@]12C [Guggulsterone] | 1.02 ± 0.012 | 0.841 ± 0.016 |
| CC(C)c1cc2c(cc1S(=O)(=O)O)[C@@]1(C)CCC[C@@](C)(C(=O)O)[C@@H]1CC2 [Ecabet (sodium)] | 1.05 ± 0.031 | 1.21 ± 0.26 |
| Nc1nc2[nH]cnc2c(=S)[nH]1 | 0.795 ± 0.23 | 0.636 ± 0.22 |
| O=C(/C=C/c1ccc(O)c(O)c1)O[C@@H]1[C@H](O)C[C@@](O)(C(=O)O)C[C@H]1OC(=O)/C=C/c1ccc(O)c(O)c1 (stereo in doubt) [3,4-Dicaffeoylquinic acid] | 0.859 ± 0.18 | 1.06 ± 0.23 |
| CC(NC(=O)C(Cc1ccccc1)NC(=O)OCc1ccccc1)C(=O)CF (stereo not drawn) | 1.29 ± 0.072 | 1.09 ± 0.026 |
| C=CCc1cccc(/C=N/NC(=O)CN2CCN(Cc3ccccc3)CC2)c1O | 0.726 ± 0.011 | 0.905 ± 0.018 |
| Cc1cc(C)c(-c2n[nH]c(C)c2C)cc1C(=O)N1CC(c2ccc(C#N)cc2)C1 | 1.15 ± 0.17 | 1.22 ± 0.43 |
